The target of test [1] is flagellin type B of multi-drug resistant P. aeruginosa strain PA21 (Pseudomonas aeruginosa). In words: immunoblot of P. aeruginosa lysates probed with LST-003, anti-human Fc peroxidase detection. In general terms: In western blotting, separated proteins are transferred to a membrane and probed.
In test [2] the target is flagellin type A of multi-drug resistant P. aeruginosa strain PA1 (Pseudomonas aeruginosa). In words: immunoblot of bacterial lysates.
Test [3] has as its target flagellin type A of multi-drug resistant P. aeruginosa strain PA409 (Pseudomonas aeruginosa). In words: immunoblot of bacterial lysates.
In test [4] the target is flagellin type A of multi-drug resistant P. aeruginosa strain PA141 (Pseudomonas aeruginosa). In words: immunoblot of bacterial lysates.
Test [5] concerns the target flagellin type A of multi-drug resistant P. aeruginosa strain PA49 (Pseudomonas aeruginosa). In words: immunoblot of bacterial lysates.
The target of test [6] is flagellin type B of multi-drug resistant clinical P. aeruginosa isolate Ka02 (Pseudomonas aeruginosa). In words: ELISA on formaldehyde-fixed whole bacteria. A general note: In an ELISA, binding on a coated surface is turned into a signal by an enzyme label.
Test [7] addresses flagellin type A of multi-drug resistant P. aeruginosa strain PA1 (Pseudomonas aeruginosa). In words: western blot of bacterial lysates, mAb at 10 µg/ml.
Test [8] concerns the target flagellin type A of multi-drug resistant P. aeruginosa strain PA409 (Pseudomonas aeruginosa). In words: western blot of bacterial lysates, mAb at 10 µg/ml.
The target in test [9] is flagellin type A of multi-drug resistant P. aeruginosa strain PA141 (Pseudomonas aeruginosa). In words: western blot of bacterial lysates, mAb at 10 µg/ml.
The target in test [10] is flagellin type A of multi-drug resistant P. aeruginosa strain PA49 (Pseudomonas aeruginosa). In words: western blot of bacterial lysates, mAb at 10 µg/ml.
Test [11] concerns the target flagellin type A of P. aeruginosa strain ATCC 27853 (Pseudomonas aeruginosa). In words: ELISA on wells holding an equal mixture of formaldehyde-fixed PA27853 (type A) and Ka02 (type B) bacteria, mAb at 1 nM; the target within the mixture follows the filing's text, not the sheet.
Test [12] shares this target. In words: ELISA on formaldehyde-fixed whole bacteria, mAb at 1 nM.
Test [13] deals with flagellin type B of multi-drug resistant clinical P. aeruginosa isolate Ka02 (Pseudomonas aeruginosa). The description is as above.
Test [14] concerns the target flagellin type A of multi-drug resistant P. aeruginosa strain PA1 (Pseudomonas aeruginosa). In words: immunoblot of P. aeruginosa lysates probed with LST-003 at 10 µg/ml, anti-human Fc peroxidase detection.
Test [15] deals with flagellin type A of multi-drug resistant P. aeruginosa strain PA409 (Pseudomonas aeruginosa). The description is as above.
The target in test [16] is flagellin type A of multi-drug resistant P. aeruginosa strain PA141 (Pseudomonas aeruginosa). The description is as above.
Test [17] deals with flagellin type A of multi-drug resistant P. aeruginosa strain PA49 (Pseudomonas aeruginosa). The test is described as above.
The target of test [18] is flagellin type B of multi-drug resistant P. aeruginosa strain PA21 (Pseudomonas aeruginosa). In words: western blot of P. aeruginosa lysates.

These are yes or no findings as the source states them, for the method shown. For part of these data: Binding calls can cover weak binding; strength is not graded here.

B1: chimeric mAb LST-003 (antibody, V domains shown)
VH: DVQLQESGPGLVKPSQSLSLPCSVTGYSITSGYYWNWIRQFPGNKLEWMGYIRYDGNNNYNPSLKNRISITHDTSKNQFFLKLNYVTTEDTATYYCARGLQFYFDSWGQGTTLTVSS
VL: DIVMSQSPSSLAVSGGEKVTMSCKSSQSLLNGSYQKHTLAWYQQKPGQSPKLLIYWASTRESGVPDRFTGSGSGTDFTLTISSVKAEDLAVYYCQQYYSYPWTFGGGTKLEIKR
Turning to B1, the binding entry in test [1] was “no binding (tested: 10 µg/ml)”; in [2], “binds”; in test [3], “binds”; in test [4] it was “binds”; in test [5] it was “binds”; in [6], “no binding (tested: 1 nM)”. Moreover, the binding result in test [7], in [8], in test [9], in [10], in test [11] and in test [12] was “binds” throughout. For the same molecule, the binding result is listed as “no binding (tested: 1 nM)” in [13]; “binds” in test [14]; “binds” in [15]; “binds” in test [16]; “binds” in test [17]; “no binding (tested: 10 µg/ml)” in [18].

The values above are taken from patent US20130096282A1.
